Test results from patent US9345739B2, “Methods and compositions for the treatment of proteinuric diseases” (The General Hospital Corporation, priority 2007, dated 2016).
Results are given in words; binding and its absence hold for the method and conditions named. Binding seen in cells or lysates may run through a third protein. Some entries that bind do so weakly or less than the wild type.

Sequences of proteins named here, by UniProt entry; tags and fusion partners are left off. Residues count along the entry.
UniProt P09055, residues 21-798: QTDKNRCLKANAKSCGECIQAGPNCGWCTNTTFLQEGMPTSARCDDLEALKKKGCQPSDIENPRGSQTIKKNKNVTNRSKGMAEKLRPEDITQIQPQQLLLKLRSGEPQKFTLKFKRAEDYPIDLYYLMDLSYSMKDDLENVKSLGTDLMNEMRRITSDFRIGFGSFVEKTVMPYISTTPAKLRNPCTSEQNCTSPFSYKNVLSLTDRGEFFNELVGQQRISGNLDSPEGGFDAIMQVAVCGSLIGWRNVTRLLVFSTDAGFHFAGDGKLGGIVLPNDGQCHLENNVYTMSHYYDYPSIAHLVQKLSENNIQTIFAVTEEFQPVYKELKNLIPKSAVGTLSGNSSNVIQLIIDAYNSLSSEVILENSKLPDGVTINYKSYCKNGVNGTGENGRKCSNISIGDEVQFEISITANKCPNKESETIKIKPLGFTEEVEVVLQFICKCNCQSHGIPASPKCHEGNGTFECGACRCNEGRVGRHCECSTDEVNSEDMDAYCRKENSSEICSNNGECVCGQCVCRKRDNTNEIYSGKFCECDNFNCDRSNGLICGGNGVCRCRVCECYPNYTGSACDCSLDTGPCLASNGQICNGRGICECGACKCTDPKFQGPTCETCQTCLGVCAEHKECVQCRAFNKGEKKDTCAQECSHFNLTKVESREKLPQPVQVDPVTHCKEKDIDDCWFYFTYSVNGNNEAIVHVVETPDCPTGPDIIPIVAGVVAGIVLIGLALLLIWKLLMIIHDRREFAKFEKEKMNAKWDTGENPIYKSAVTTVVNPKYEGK
UniProt Q03405, residues 23-305: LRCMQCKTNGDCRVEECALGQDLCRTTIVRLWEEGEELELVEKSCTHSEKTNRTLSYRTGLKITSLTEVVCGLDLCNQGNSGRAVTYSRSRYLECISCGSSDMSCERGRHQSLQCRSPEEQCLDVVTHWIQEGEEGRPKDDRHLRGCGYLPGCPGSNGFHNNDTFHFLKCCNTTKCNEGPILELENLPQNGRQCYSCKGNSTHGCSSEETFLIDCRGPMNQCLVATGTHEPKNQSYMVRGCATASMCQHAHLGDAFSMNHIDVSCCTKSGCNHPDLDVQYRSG

Biological target: mouse β1 integrin (mouse) (UniProt P09055)
Assay: co-immunoprecipitation from lysates of co-transfected HEK cells, blotted with HA or Flag antibodies

- binding: binds
Substance: full length human uPAR (from UniProt Q03405 23-305) (receptor)
